Numbering of substitutions follows the chain as printed. In names and notes the source's numbering stands. No constants are given. Whether binding was seen depends on the method and setting. In cells and extracts the contact can be indirect. Some entries that bind do so weakly or less than the wild type. For part of these data: Sequences can lack the tags named with a protein.

Sequences of proteins named here, by UniProt entry; tags and fusion partners are left off. A change or cut given only in a name is not applied to a line headed by its entry. A line that says so, or that is headed by a name, gives the form on record, which may keep a tag or linker.
UniProt P52294: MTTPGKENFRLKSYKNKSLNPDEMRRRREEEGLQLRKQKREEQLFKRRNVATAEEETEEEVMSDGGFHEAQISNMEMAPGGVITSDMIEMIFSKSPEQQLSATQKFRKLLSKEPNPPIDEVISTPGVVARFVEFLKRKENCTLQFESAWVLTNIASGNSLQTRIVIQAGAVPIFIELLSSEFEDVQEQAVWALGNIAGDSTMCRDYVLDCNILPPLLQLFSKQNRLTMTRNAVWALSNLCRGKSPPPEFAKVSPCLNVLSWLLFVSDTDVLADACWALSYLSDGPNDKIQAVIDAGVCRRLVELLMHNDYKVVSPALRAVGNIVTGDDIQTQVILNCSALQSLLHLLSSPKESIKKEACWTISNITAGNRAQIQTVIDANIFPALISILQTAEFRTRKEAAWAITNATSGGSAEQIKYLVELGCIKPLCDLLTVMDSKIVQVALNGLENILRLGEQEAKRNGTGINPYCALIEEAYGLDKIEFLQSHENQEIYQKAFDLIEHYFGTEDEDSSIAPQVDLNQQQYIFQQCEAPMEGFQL
UniProt P40763: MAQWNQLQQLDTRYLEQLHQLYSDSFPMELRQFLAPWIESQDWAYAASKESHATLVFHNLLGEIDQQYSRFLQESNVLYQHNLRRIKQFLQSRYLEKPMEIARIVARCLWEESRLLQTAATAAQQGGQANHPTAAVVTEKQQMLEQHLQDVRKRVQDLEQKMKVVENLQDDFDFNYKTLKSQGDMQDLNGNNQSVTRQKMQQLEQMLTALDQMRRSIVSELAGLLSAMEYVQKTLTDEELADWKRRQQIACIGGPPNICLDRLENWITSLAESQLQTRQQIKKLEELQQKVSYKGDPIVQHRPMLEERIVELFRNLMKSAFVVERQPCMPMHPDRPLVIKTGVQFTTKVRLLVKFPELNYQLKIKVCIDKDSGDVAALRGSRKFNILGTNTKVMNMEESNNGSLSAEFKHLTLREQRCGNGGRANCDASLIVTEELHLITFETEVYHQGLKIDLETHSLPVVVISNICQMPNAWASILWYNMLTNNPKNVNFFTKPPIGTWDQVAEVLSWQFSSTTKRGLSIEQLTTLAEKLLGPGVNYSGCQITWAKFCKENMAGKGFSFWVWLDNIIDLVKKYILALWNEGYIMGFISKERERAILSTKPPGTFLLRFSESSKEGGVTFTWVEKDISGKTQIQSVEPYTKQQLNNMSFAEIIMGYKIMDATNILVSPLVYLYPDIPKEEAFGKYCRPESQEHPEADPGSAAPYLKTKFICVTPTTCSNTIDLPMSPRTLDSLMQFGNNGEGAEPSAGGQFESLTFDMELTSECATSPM
macroH2A1.2 (mH2A1.2), endogenous (O75367-1, form named): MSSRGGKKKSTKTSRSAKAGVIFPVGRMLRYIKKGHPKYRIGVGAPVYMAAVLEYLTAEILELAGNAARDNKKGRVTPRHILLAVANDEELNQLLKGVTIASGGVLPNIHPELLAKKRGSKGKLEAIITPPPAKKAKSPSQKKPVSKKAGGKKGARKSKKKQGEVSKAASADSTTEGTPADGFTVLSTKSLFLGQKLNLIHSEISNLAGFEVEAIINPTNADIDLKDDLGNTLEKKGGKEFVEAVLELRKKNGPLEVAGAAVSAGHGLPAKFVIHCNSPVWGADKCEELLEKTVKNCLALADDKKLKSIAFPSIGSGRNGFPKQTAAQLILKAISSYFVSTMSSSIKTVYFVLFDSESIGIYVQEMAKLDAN

For assay [1], the target named is T1, Tripartite motif-containing 59 (TRIM59), endogenous (human (endogenous in LN229 and U87)) (UniProt Q8IWR1).
T1 sequence: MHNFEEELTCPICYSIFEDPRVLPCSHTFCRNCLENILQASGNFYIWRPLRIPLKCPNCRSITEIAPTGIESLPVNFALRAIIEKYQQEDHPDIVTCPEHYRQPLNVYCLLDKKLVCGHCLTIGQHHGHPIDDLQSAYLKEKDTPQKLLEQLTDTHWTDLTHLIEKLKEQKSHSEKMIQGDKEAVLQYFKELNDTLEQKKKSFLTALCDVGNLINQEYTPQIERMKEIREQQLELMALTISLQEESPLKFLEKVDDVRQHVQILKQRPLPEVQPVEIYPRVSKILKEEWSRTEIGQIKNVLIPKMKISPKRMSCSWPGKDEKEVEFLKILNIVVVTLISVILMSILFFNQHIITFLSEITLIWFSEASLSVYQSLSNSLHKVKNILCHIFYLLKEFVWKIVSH
Briefly: co-IP; endogenous proteins; lysates of LN229 and U87 cells expressing EGFRvIII or EGFR, with or without EGF (100 ng/ml), one panel with Roscovitine (20 μM) pre-treatment; IP lysis buffer 20 mM Tris-HCl pH 7.5, 150 mM NaCl, 1 mM EDTA, 1% Triton X-100; protein G-agarose; WB.

Assay [2] deals with GST-CDK5 (human (cDNA amplified from U87 cells)) (UniProt Q00535). Briefly: pull-down; purified GST-CDK5 (glutathione beads) incubated with cell extracts from U87/EGFR cells with or without EGF stimulation for 30 min; WB; only the target purified.
Assay [3] concerns the target Cyclin-dependent kinase 5 (CDK5), endogenous (human (endogenous in LN229 and U87)) (UniProt Q00535). Briefly: co-IP; endogenous proteins; lysates of LN229 and U87 cells expressing EGFRvIII or EGFR, with or without EGF (100 ng/ml), one panel with Roscovitine (20 μM) pre-treatment; IP lysis buffer 20 mM Tris-HCl pH 7.5, 150 mM NaCl, 1 mM EDTA, 1% Triton X-100; protein G-agarose; WB.

Assay [4] has as its target Flag-tagged CDK5 wild type (human (cDNA amplified from U87 cells)) (UniProt Q00535). Briefly: co-IP; Supplementary Fig. 4: ectopic expression of TRIM59 (increasing dose; WT, S308A, S308D) and CDK5 WT or KD; method, cells and tags not given.
For assay [5], the target named is Flag-tagged importin α5 (human (cDNA amplified from U87 cells)) (UniProt P52294). Briefly: co-IP; Flag-tagged importin α proteins and HA-tagged TRIM59 (WT, S308A, NLS-mut) co-expressed in LN229/EGFR cells, with or without EGF (100 ng/ml) for 6 h.
Assay [6] concerns the target Myc-importin α5 (human (cDNA amplified from U87 cells)) (UniProt P52294). Description: co-IP; Myc-importin α5 and HA-TRIM59 S308D co-expressed with Flag-PIN1 WT or PIN1 C113A mutant in LN229 cells.
Assay [7] concerns the target Signal transducer and activator of transcription 3 (STAT3) (UniProt P40763). Description: co-IP; Supplementary Fig. 13: U87/EGFRvIII/shTRIM59 cells with empty vector or re-expressed TRIM59 WT, S308A or NLS mutant; TC45 association with STAT3; method not given.

Regarding “macroH2A1.1 (mH2A1.1), endogenous (from UniProt O75367-2 1-369)”, the binding result in assay [1] is “binds”.

In the case of “macroH2A1.2 (mH2A1.2), endogenous (from UniProt O75367-1 1-372)”, in assay [1], the binding result is “binds”.

B1: Tripartite motif-containing 59 (TRIM59), endogenous (protein, UniProt Q8IWR1 1-403)
chain: T1 sequence
For the molecule B1, the binding result in assay [2] and in assay [3] was “binds” each time.

B2: TRIM59 wild type, exogenous (tag not stated) (protein, UniProt Q8IWR1 1-403)
chain: T1 sequence
On to B2, for which the binding entry in assay [4] is on record as “binds”.

B3: HA-TRIM59 S308A (protein, UniProt Q8IWR1 1-403)
chain: T1 sequence with S308A
As for B3, the binding result in assay [5] is “binds”.

B4: HA-tagged TRIM59 wild type (protein, UniProt Q8IWR1 1-403)
chain: T1 sequence
Take B4: the binding entry in assay [5] is given as “binds”.

B5: HA-TRIM59 S308D (protein, UniProt Q8IWR1 1-403)
chain: T1 sequence with S308D
For the molecule B5, in assay [6], the binding result is “binds”.

B6: T cell protein tyrosine phosphatase (TC45) (enzyme, UniProt P17706-2 1-387)
chain: MPTTIEREFEELDTQRRWQPLYLEIRNESHDYPHRVAKFPENRNRNRYRDVSPYDHSRVKLQNAENDYINASLVDIEEAQRSYILTQGPLPNTCCHFWLMVWQQKTKAVVMLNRIVEKESVKCAQYWPTDDQEMLFKETGFSVKLLSEDVKSYYTVHLLQLENINSGETRTISHFHYTTWPDFGVPESPASFLNFLFKVRESGSLNPDHGPAVIHCSAGIGRSGTFSLVDTCLVLMEKGDDINIKQVLLNMRKYRMGLIQTPDQLRFSYMAIIEGAKCIKGDSSIQKRWKELSKEDLSPAFDHSPNKIMTEKYNGNRIGLEEEKLTGDRCTGLSSKMQDTMEENSESALRKRIREDRKATTAQKVQQMKQRLNENERKRKRPRLTDT
In the case of B6, the binding entry in assay [7] is listed as “binds”.
